Results deposited as PubChem BioAssay AID1259308 (NCATS, 2017).
This is one part, drawn at random, of about 59,000 reagents. About 1,510 of all reagents (2.6%) count as active. 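Calls use total luciferase alone and ignore viability, so some active siRNAs may act by altering cell number.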 Reagents against one gene are numbered here. Further read-outs or replicates are left out here.

Test: 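Genes whose loss raises luciferase production in HEK293 cells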 (primary screen)
Cell system: human HEK293 embryonic kidney cells stably expressing firefly luciferase (HEK-CMV-Luc2-Hygro)
Reagent: single siRNA against human genes, 0.8 pmol siRNA per well
Time to read-out: 72 h
Read-out: 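Reporter luminescence and viable-cell signal on separate replicate plates, given as percent of non-targeting control and median/MAD z-scores, plus per-cell luciferase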
Reading the numbers: total luciferase, z-score and total luciferase, % of control: higher = more reporter protein produced
Rule for the call: 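An siRNA counts as active if its total luciferase robust z-score exceeds 3; genes with two or more such siRNAs out of three were retested with fresh siRNAs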
Meaning of the calls: active = raised luciferase; inactive = no rise

FABP2 (fatty acid binding protein 2) #1
- total luciferase, z-score: -0.974
- total luciferase, % of control: 62.5
- Call: inactive

FABP2 (fatty acid binding protein 2) #2
- total luciferase, z-score: -0.751
- total luciferase, % of control: 66.9
- Call: inactive

FABP2 (fatty acid binding protein 2) #3
- total luciferase, z-score: -0.404
- total luciferase, % of control: 73.9
- Call: inactive

GFRA2 (GDNF family receptor alpha 2) #1
- total luciferase, z-score: 0.255
- total luciferase, % of control: 87
- Call: inactive

GFRA2 (GDNF family receptor alpha 2) #2
- total luciferase, z-score: -0.951
- total luciferase, % of control: 63
- Call: inactive

GFRA2 (GDNF family receptor alpha 2) #3
- total luciferase, z-score: 0.995
- total luciferase, % of control: 102
- Call: inactive

OR2AT4 (olfactory receptor family 2 subfamily AT member 4) #1
- total luciferase, z-score: -1.77
- total luciferase, % of control: 46.7
- Call: inactive

OR2AT4 (olfactory receptor family 2 subfamily AT member 4) #2
- total luciferase, z-score: -0.558
- total luciferase, % of control: 70.8
- Call: inactive

OR2AT4 (olfactory receptor family 2 subfamily AT member 4) #3
- total luciferase, z-score: 0.749
- total luciferase, % of control: 96.8
- Call: inactive

AIFM1 (apoptosis inducing factor mitochondria associated 1) #1
- total luciferase, z-score: -0.673
- total luciferase, % of control: 68.5
- Call: inactive

AIFM1 (apoptosis inducing factor mitochondria associated 1) #2
- total luciferase, z-score: -0.508
- total luciferase, % of control: 71.8
- Call: inactive

AIFM1 (apoptosis inducing factor mitochondria associated 1) #3
- total luciferase, z-score: -0.499
- total luciferase, % of control: 72
- Call: inactive

GGA3 #1
- total luciferase, z-score: -0.726
- total luciferase, % of control: 67.5
- Call: inactive

GGA3 #2
- total luciferase, z-score: -0.451
- total luciferase, % of control: 72.9
- Call: inactive

GGA3 #3
- total luciferase, z-score: 1.47
- total luciferase, % of control: 111
- Call: inactive

LRRC4 (leucine rich repeat containing 4) #1
- total luciferase, z-score: -0.285
- total luciferase, % of control: 76.2
- Call: inactive

LRRC4 (leucine rich repeat containing 4) #2
- total luciferase, z-score: -1.84
- total luciferase, % of control: 45.3
- Call: inactive

LRRC4 (leucine rich repeat containing 4) #3
- total luciferase, z-score: 0.993
- total luciferase, % of control: 102
- Call: inactive

RAB5B (RAB5B, member RAS oncogene family) #1
- total luciferase, z-score: 1.22
- total luciferase, % of control: 106
- Call: inactive

RAB5B (RAB5B, member RAS oncogene family) #2
- total luciferase, z-score: 1.24
- total luciferase, % of control: 106
- Call: inactive

RAB5B (RAB5B, member RAS oncogene family) #3
- total luciferase, z-score: -0.188
- total luciferase, % of control: 78.1
- Call: inactive

MYRIP (myosin VIIA and Rab interacting protein) #1
- total luciferase, z-score: -0.417
- total luciferase, % of control: 73.6
- Call: inactive

MYRIP (myosin VIIA and Rab interacting protein) #2
- total luciferase, z-score: -0.437
- total luciferase, % of control: 73.2
- Call: inactive

MYRIP (myosin VIIA and Rab interacting protein) #3
- total luciferase, z-score: 0.951
- total luciferase, % of control: 101
- Call: inactive

DLGAP1-AS1 (DLGAP1 antisense RNA 1) #1
- total luciferase, z-score: -0.00258
- total luciferase, % of control: 81.8
- Call: inactive

DLGAP1-AS1 (DLGAP1 antisense RNA 1) #2
- total luciferase, z-score: 2.51
- total luciferase, % of control: 132
- Call: inactive

DLGAP1-AS1 (DLGAP1 antisense RNA 1) #3
- total luciferase, z-score: 3.03
- total luciferase, % of control: 142
- Call: active

AMT (aminomethyltransferase) #1
- total luciferase, z-score: -1.01
- total luciferase, % of control: 61.9
- Call: inactive

AMT (aminomethyltransferase) #2
- total luciferase, z-score: 0.487
- total luciferase, % of control: 91.6
- Call: inactive

AMT (aminomethyltransferase) #3
- total luciferase, z-score: 0.82
- total luciferase, % of control: 98.2
- Call: inactive

PPP1CA (protein phosphatase 1 catalytic subunit alpha) #1
- total luciferase, z-score: -0.233
- total luciferase, % of control: 77.3
- Call: inactive

PPP1CA (protein phosphatase 1 catalytic subunit alpha) #2
- total luciferase, z-score: 2.98
- total luciferase, % of control: 141
- Call: inactive

PPP1CA (protein phosphatase 1 catalytic subunit alpha) #3
- total luciferase, z-score: -1.68
- total luciferase, % of control: 48.4
- Call: inactive

C20orf173 (chromosome 20 open reading frame 173) #1
- total luciferase, z-score: 1.49
- total luciferase, % of control: 112
- Call: inactive

C20orf173 (chromosome 20 open reading frame 173) #2
- total luciferase, z-score: -1.35
- total luciferase, % of control: 55.1
- Call: inactive

C20orf173 (chromosome 20 open reading frame 173) #3
- total luciferase, z-score: 1.33
- total luciferase, % of control: 108
- Call: inactive

COL18A1-AS1 (COL18A1 antisense RNA 1) #1
- total luciferase, z-score: 0.79
- total luciferase, % of control: 97.6
- Call: inactive

COL18A1-AS1 (COL18A1 antisense RNA 1) #2
- total luciferase, z-score: -0.675
- total luciferase, % of control: 68.5
- Call: inactive

COL18A1-AS1 (COL18A1 antisense RNA 1) #3
- total luciferase, z-score: 0.657
- total luciferase, % of control: 94.9
- Call: inactive

LOC727925 (retired record) #1
- total luciferase, z-score: -1.14
- total luciferase, % of control: 59.2
- Call: inactive

LOC727925 (retired record) #2
- total luciferase, z-score: -0.928
- total luciferase, % of control: 63.4
- Call: inactive

LOC727925 (retired record) #3
- total luciferase, z-score: -0.499
- total luciferase, % of control: 72
- Call: inactive
